# The list shows a part of the results. Many values rest on one well or one pass, so single values are uncertain.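 Imaging used 1,536-well plates; nuclei positive for cleaved PARP by antibody were divided by total DNA-stained nuclei to yield the apoptosis fraction. Doses for screening kept most cells viable, and cell lines differ markedly in resting and induced cleaved-PARP levels.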
# Tested on: SkMel2
# Assay: cleaved PARP positive nuclei fraction relative to DMSO control; melanoma cells; higher = more apoptosis
# Settings: library dose: low library concentration; 72 h
row,Structure (SMILES),cleaved PARP positive nuclei fraction [%]
1,"CN(C)S(=O)(=O)c1ccc2c(c1)/C(=C/c1cc3c([nH]1)CCCC3)C(=O)N2 + NCC(=O)Nc1ccc(-n2nc(C(F)(F)F)cc2-c2ccc3c(ccc4ccccc43)c2)cc1 [OSU03012] (first compound 0.4 µM, partner dose 1 µM)",192
2,"NCC(=O)Nc1ccc(-n2nc(C(F)(F)F)cc2-c2ccc3c(ccc4ccccc43)c2)cc1 + COc1cc2c(Oc3ccc4[nH]c(C)cc4c3F)ncnc2cc1OCCCN1CCCC1 [cediranib] (first compound 1 µM, partner dose 0.4 µM)",228
3,"O=C(O)c1ccc(-c2c[nH]c3ncc(-c4ccccc4)cc23)cc1C1CCCC1 + CN(NC(=O)CC(=O)NN(C)C(=S)c1ccccc1)C(=S)c1ccccc1 [STA4783] (first compound 0.16 µM, partner dose 0.006 µM)",34.2
4,"CN(NC(=O)CC(=O)NN(C)C(=S)c1ccccc1)C(=S)c1ccccc1 + COc1cc2c(Oc3ccc4[nH]c(C)cc4c3F)ncnc2cc1OCCCN1CCCC1 [cediranib] (first compound 0.006 µM, partner dose 0.4 µM)",30.2
5,"NCC(=O)Nc1ccc(-n2nc(C(F)(F)F)cc2-c2ccc3c(ccc4ccccc43)c2)cc1 + CN(NC(=O)CC(=O)NN(C)C(=S)c1ccccc1)C(=S)c1ccccc1 [STA4783] (first compound 1 µM, partner dose 0.006 µM)",116
6,"O=C(O)c1ccc(-c2c[nH]c3ncc(-c4ccccc4)cc23)cc1C1CCCC1 + COc1cc2c(Oc3ccc4[nH]c(C)cc4c3F)ncnc2cc1OCCCN1CCCC1 [cediranib] (first compound 0.16 µM, partner dose 0.4 µM)",127

# Some of the entries above, set out differently:
row	Structure (SMILES)	cleaved PARP positive nuclei fraction [%]
3	O=C(O)c1ccc(-c2c[nH]c3ncc(-c4ccccc4)cc23)cc1C1CCCC1 + CN(NC(=O)CC(=O)NN(C)C(=S)c1ccccc1)C(=S)c1ccccc1 [STA4783] (first compound 0.16 µM, partner dose 0.006 µM)	34.2
5	NCC(=O)Nc1ccc(-n2nc(C(F)(F)F)cc2-c2ccc3c(ccc4ccccc43)c2)cc1 + CN(NC(=O)CC(=O)NN(C)C(=S)c1ccccc1)C(=S)c1ccccc1 [STA4783] (first compound 1 µM, partner dose 0.006 µM)	116
